In patent US20240408135A1:
Results are given in words; binding and its absence hold for the method and conditions named. Some entries that bind do so weakly or less than the wild type.

Tests used:
[1] = target: T1, B7-H3 on human CD3+ T cells (human) (UniProt Q5ZPR3); assay: flow cytometry on human T cells from a mixed lymphocyte reaction
T1 sequence (looked up): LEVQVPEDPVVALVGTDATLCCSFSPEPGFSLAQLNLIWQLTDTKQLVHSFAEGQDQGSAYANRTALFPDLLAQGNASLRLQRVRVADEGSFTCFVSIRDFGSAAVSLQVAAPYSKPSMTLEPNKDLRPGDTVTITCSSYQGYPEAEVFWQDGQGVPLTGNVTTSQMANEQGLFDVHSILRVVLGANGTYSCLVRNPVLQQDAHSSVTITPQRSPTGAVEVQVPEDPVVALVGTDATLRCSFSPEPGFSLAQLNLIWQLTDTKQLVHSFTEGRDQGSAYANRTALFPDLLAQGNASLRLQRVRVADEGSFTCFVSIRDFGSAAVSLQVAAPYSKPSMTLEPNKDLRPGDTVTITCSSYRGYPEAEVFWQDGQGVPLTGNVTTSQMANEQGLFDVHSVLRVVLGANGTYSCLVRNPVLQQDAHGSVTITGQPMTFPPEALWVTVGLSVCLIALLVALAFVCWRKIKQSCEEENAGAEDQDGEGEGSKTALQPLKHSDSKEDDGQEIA

[2] = target: T1, B7-H3 on human CD3+ T cells (human); assay: flow cytometry on human CD3+ T cells (peripheral and liver-infiltrating) from humanized NSG mice

B1: B7-H3-specific mAb 376.96 (antibody, V domains shown)
VH: EVQLVESGGGLVKPGGSLKLSCEASRFTFSSYAMSWVRQTPEKRLEWVAAISGGGRYTYYPDSMKGRFTISRDNAKNFLYLQMSSLRSEDTAMYYCARHYDGYLDYWGQGTTLTVSS
VL: DIVMTQSHKFMSTSIGARVSITCKASQDVRTAVAWYQQKPGQSPKLLIYSASYRYTGVPDRFTGSGSGTDFTFTISSVQAEDLAVYYCQQHYGTPPWTFGGGTKLEIK
In the case of B1, the binding [1] is reported as “binds” and the binding [2] is reported as “binds”.
